For this assay, the target named is GST-RalGDS Rap-binding domain (UniProt Q12967). The assay can be described thus: pull-down; GST-RBD held on GSH-Sepharose / glutathione-agarose resin; lysates of HA-Rap1 transfected NRK, HELA or HL-1 cells (pre-treated 2 h with DMSO, 8-Br-cAMP, ESI-09 or trypomastigotes of T. cruzi Y strain) incubated with the resin 1 h at 4°C; washed, eluted with cracking buffer, Western blot; only the target purified. Background: Immunoblotting shows a protein as a band on a membrane.

Protein sequences, listed by entry. Tags and fused reporters are not part of them. Lines headed by an entry give the natural chain unless they say otherwise; changes in a name come on top.
UniProt Q12967: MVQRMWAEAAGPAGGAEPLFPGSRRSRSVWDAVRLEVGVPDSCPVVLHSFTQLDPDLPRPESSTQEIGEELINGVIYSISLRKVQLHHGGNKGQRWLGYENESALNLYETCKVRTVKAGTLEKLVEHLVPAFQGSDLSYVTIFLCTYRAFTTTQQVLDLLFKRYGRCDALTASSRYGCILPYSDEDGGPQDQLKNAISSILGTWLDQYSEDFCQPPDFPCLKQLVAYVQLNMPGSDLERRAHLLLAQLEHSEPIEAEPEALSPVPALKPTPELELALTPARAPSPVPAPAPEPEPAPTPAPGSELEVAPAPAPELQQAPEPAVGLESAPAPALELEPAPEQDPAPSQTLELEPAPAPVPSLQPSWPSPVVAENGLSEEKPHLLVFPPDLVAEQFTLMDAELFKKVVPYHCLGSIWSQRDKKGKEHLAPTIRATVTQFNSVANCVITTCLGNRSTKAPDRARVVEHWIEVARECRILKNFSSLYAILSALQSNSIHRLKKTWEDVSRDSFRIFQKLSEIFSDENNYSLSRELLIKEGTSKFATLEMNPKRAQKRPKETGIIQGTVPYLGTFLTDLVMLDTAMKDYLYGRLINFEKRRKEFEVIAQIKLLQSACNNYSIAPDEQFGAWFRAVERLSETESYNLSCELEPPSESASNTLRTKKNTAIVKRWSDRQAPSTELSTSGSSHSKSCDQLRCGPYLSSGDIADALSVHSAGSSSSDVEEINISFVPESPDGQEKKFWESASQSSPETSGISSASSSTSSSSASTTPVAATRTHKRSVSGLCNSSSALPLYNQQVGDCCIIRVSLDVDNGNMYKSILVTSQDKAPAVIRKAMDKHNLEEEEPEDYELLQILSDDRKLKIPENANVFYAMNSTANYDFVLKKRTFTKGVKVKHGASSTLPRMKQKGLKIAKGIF
UniProt P61224: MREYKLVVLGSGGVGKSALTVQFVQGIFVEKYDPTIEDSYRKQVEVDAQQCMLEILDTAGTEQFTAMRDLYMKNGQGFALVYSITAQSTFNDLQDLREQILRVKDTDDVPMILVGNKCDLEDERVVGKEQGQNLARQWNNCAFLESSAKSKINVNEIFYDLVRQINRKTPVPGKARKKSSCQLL

These are yes or no findings as the source states them, for the method shown. In cells and extracts the contact can be indirect. Binding calls can cover weak binding; strength is not graded here.

Regarding HA-Rap1b (from UniProt P61224 1-184), the binding result is given as “binds”.

(Values after publication PMC10032529.)
